This is an account of results in patent US20240358831A1, “SELECTION OF IMMUNE CELLS USING PEPTIDE MHC COMPLEXES GENERATED BY CONDITIONAL LIGAND EXCHANGE” (IMMATICS US, INC., priority 2021, published 2024).

The series is described as follows: Detection frequency of HLA presented peptides on tumor samples by LC-MS. The arrangement: species or system human.
For the sequence “AEIDARNDSF (listed as Homo sapiens) [SPTBN1-001, parental peptide]”, the “frequency Tumor” value was determined as 89%.

Take “AESIVVHTY (listed as Homo sapiens) [CSE1-004, parental peptide]”: the “frequency Tumor” value is listed as 97%.

For the sequence “ALFLTLTTK (listed as Homo sapiens) [GIBB-001, parental peptide]”, the “frequency Tumor” value came out at 99%.

For “APRTVALTAL (listed as Homo sapiens) [HLA-DPB1-001, parental peptide]”, the “frequency Tumor” value was found to be 98%.

Turning to “AYVHMVTHF (listed as Homo sapiens) [TEG-001, parental peptide]”, the “frequency Tumor” value amounted to 99%.

“DAVVKHVL (listed as Homo sapiens) [COPA-007, parental peptide]”: the “frequency Tumor” value is given as 95%.

On to DLERKVESL [VIM-003], for which the “frequency Tumor” value amounted to 99%.

Regarding “DLNEKARAL (listed as Homo sapiens) [PDCD10-001, parental peptide]”, the “frequency Tumor” value is given as 83%.

For “FGLARAFSL (listed as Homo sapiens) [MIR286-001, parental peptide]”, the “frequency Tumor” value stood at 92%.

Turning to “IIYKGGTSR (listed as Homo sapiens) [GSN-001, parental peptide]”, the “frequency Tumor” value is reported as 74%.

For “ILMEHIHKL (listed as Homo sapiens) [RPL19-001, parental peptide]”, the “frequency Tumor” value worked out at 86%.

For the sequence “KYPENFFLL (listed as Homo sapiens) [PPP1CA-001, parental peptide]”, the “frequency Tumor” value worked out at 100%.

Regarding “LLDQGQLNKY (listed as Homo sapiens) [CLTC-001, parental peptide]”, the “frequency Tumor” value is 98%.

Take “NENSLFKSL (listed as Homo sapiens) [CLTC-005, parental peptide]”: the “frequency Tumor” value worked out at 98%.

For the sequence “NIKKKQEAL (listed as Homo sapiens) [SPTAN-001, parental peptide]”, the “frequency Tumor” value was 10%.

“RLFVGSIPK (listed as Homo sapiens) [HNRNPR-001, parental peptide]”: the “frequency Tumor” value is given as 98%.

On to “SPRPPLISV (listed as Homo sapiens) [MUDENG-001, parental peptide]”, for which the “frequency Tumor” value was found to be 93%.

“STDPRPASY (listed as Homo sapiens) [AXIN1-002, parental peptide]”: the “frequency Tumor” value was 97%.

Take “STETSTVLY (listed as Homo sapiens) [MUC16-009, parental peptide]”: the “frequency Tumor” value was found to be 15%.

Consider “TPKEKAQAL (listed as Homo sapiens) [MKI-002, parental peptide]”, for which the “frequency Tumor” value was 4%.

“TVKQKYLSF (listed as Homo sapiens) [LOC646214-002, parental peptide]”: the “frequency Tumor” value was found to be 72%.

“VTELHVISY (listed as Homo sapiens) [RNF213-009, parental peptide]”: the “frequency Tumor” value stood at 96%.

“YLLPAIVHI (listed as Homo sapiens) [DDX5-001, parental peptide]”: the “frequency Tumor” value amounted to 99%.
